Results are given in words; binding and its absence hold for the method and conditions named. Binding seen in cells or lysates may run through a third protein. Some binding calls cover weakened binding; strength is not graded here.
Target: RAF kinase inhibitor protein (human (endogenous in SGC7901)) (UniProt P30086)
Experiment: co-IP; total protein extract of SGC7901 cells precipitated with RKIP antibody and protein G-sepharose 4B beads, washed with TBST; Western blot with antibodies against HSP90, 14-3-3ϵ and keratin 8; non-immune IgY as negative control

Chains of the proteins cited; added tags and fusions are not shown.
UniProt P30086: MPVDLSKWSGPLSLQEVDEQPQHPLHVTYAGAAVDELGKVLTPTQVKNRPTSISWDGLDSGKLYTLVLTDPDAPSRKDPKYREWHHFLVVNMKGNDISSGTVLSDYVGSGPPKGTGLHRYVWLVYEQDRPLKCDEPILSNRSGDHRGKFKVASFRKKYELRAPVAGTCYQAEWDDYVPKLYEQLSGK
UniProt P62258: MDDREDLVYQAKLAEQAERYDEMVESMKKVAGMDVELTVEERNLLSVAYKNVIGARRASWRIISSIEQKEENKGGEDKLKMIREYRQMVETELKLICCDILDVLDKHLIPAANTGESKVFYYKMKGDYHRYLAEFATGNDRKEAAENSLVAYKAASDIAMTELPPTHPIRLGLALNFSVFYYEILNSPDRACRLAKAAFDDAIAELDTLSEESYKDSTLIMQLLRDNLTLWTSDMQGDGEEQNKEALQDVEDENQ
UniProt P08238: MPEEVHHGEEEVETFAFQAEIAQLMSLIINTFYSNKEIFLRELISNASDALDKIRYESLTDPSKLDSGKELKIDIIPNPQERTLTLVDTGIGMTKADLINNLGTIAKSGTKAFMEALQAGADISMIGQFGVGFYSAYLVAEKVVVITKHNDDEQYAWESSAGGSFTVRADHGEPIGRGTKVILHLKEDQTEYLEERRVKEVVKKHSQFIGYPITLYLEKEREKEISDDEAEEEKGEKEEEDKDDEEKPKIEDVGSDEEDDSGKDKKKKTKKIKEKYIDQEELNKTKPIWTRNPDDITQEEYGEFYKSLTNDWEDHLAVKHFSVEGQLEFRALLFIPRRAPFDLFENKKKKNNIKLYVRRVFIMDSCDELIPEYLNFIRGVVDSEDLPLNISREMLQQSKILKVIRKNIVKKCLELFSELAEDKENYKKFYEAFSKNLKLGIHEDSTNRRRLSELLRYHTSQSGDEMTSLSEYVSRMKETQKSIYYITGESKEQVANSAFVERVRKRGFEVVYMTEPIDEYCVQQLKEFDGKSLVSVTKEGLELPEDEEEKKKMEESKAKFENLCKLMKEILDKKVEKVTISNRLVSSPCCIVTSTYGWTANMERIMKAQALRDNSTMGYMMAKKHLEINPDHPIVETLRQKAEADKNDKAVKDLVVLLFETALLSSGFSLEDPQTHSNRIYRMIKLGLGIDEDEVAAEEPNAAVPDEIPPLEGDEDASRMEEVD

Substance: 14-3-3 protein epsilon (from UniProt P62258 1-255)
- binding: binds

Substance: Heat shock protein HSP 90-beta (from UniProt P08238 1-724)
- binding: binds

Source: paper PMC3830446
